Results on 1 molecule are retold here after paper PMC2821926.

By UniProt entry, the sequences of proteins in these tests, tags left out.
UniProt P49815: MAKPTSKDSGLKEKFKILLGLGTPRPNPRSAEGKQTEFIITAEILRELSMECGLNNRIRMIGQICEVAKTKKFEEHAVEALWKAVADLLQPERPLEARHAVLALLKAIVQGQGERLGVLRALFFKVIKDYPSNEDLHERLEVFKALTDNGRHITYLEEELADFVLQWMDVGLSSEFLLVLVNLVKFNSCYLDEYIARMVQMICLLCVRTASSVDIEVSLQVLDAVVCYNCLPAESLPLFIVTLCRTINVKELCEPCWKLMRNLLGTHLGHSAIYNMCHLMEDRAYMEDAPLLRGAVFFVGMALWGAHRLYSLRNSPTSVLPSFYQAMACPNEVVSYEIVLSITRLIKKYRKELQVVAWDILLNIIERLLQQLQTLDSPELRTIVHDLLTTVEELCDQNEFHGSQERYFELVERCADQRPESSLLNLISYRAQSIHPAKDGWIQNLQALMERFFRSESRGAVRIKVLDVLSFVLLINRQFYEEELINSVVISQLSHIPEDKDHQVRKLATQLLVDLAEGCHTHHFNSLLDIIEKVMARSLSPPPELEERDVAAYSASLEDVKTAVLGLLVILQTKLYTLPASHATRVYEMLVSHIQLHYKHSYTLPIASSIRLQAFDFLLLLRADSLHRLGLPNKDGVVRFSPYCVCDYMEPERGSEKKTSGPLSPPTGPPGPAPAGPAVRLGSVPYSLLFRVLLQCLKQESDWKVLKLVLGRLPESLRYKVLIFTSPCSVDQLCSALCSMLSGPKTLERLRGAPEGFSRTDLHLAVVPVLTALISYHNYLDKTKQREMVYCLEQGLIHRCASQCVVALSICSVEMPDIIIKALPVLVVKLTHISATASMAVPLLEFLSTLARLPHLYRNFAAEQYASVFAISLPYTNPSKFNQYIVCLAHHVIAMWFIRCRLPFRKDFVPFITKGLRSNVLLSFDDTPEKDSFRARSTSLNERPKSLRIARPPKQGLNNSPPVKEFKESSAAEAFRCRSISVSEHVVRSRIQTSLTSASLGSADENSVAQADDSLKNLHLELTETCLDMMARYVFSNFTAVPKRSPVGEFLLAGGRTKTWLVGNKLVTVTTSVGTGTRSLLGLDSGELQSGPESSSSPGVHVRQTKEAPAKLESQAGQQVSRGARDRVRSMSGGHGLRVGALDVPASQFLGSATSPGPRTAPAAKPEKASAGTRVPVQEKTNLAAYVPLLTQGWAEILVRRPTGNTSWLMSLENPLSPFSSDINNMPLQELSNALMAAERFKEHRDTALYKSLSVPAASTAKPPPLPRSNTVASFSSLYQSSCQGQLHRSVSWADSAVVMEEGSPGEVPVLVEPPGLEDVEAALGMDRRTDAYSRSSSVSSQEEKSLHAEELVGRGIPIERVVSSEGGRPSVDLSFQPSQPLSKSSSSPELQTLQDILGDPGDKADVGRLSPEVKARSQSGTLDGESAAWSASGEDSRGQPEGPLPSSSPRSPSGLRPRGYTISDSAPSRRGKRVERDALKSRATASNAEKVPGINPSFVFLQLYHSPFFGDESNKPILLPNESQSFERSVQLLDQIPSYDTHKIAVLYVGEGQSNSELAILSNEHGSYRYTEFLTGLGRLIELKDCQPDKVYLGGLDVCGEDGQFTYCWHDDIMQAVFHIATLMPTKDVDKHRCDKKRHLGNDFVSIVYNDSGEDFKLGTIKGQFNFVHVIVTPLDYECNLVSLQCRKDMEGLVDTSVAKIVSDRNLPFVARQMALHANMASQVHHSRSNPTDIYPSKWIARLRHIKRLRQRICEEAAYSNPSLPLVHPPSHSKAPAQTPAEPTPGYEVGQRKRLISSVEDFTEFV

The test has as its target tuberous sclerosis complex 2 (TSC2) tumor suppressor (human (endogenous in HEK-293)) (UniProt P49815). In words: co-IP; lysates of transfected HEK-293 cells (expressing CD44-CP1 or Flag-CP1; Flag-TSC1 for the TSC1-TSC2 pair) incubated with anti-TSC2 or anti-TSC1 antibody and protein A and protein G Sepharose overnight at 4°C; washed with 10 mM Tris pH 7.5, 1% NP-40, 1% Triton X-100, 100 mM NaCl; immunoblot with E1/2, anti-Flag or anti-TSC2.

These are yes or no findings as the source states them, for the method shown. Binding seen in cells or lysates may run through a third protein. Some binding calls cover weakened binding; strength is not graded here. Sequences can lack the tags named with a protein.

B1: Flag-TSC1 (protein, UniProt Q92574 1-1164)
chain: MAQQANVGELLAMLDSPMLGVRDDVTAVFKENLNSDRGPMLVNTLVDYYLETSSQPALHILTTLQEPHDKHLLDRINEYVGKAATRLSILSLLGHVIRLQPSWKHKLSQAPLLPSLLKCLKMDTDVVVLTTGVLVLITMLPMIPQSGKQHLLDFFDIFGRLSSWCLKKPGHVAEVYLVHLHASVYALFHRLYGMYPCNFVSFLRSHYSMKENLETFEEVVKPMMEHVRIHPELVTGSKDHELDPRRWKRLETHDVVIECAKISLDPTEASYEDGYSVSHQISARFPHRSADVTTSPYADTQNSYGCATSTPYSTSRLMLLNMPGQLPQTLSSPSTRLITEPPQATLWSPSMVCGMTTPPTSPGNVPPDLSHPYSKVFGTTAGGKGTPLGTPATSPPPAPLCHSDDYVHISLPQATVTPPRKEERMDSARPCLHRQHHLLNDRGSEEPPGSKGSVTLSDLPGFLGDLASEEDSIEKDKEEAAISRELSEITTAEAEPVVPRGGFDSPFYRDSLPGSQRKTHSAASSSQGASVNPEPLHSSLDKLGPDTPKQAFTPIDLPCGSADESPAGDRECQTSLETSIFTPSPCKIPPPTRVGFGSGQPPPYDHLFEVALPKTAHHFVIRKTEELLKKAKGNTEEDGVPSTSPMEVLDRLIQQGADAHSKELNKLPLPSKSVDWTHFGGSPPSDEIRTLRDQLLLLHNQLLYERFKRQQHALRNRRLLRKVIKAAALEEHNAAMKDQLKLQEKDIQMWKVSLQKEQARYNQLQEQRDTMVTKLHSQIRQLQHDREEFYNQSQELQTKLEDCRNMIAELRIELKKANNKVCHTELLLSQVSQKLSNSESVQQQMEFLNRQLLVLGEVNELYLEQLQNKHSDTTKEVEMMKAAYRKELEKNRSHVLQQTQRLDTSQKRILELESHLAKKDHLLLEQKKYLEDVKLQARGQLQAAESRYEAQKRITQVFELEILDLYGRLEKDGLLKKLEEEKAEAAEAAEERLDCCNDGCSDSMVGHNEEASGHNGETKTPRPSSARGSSGSRGGGGSSSSSSELSTPEKPPHQRAGPFSSRWETTMGEASASIPTTVGSLPSSKSFLGMKARELFRNKSESQCDEDGMTSSLSESLKTELGKDLGVEAKIPLNLDGPHPSPPTPDSVGQLHIMDYNETHHEHS
Turning to B1, the binding entry is “binds”.
